Measured values: US20200054643A1, “FUSED HETEROCYCLIC COMPOUNDS AS SELECTIVE BMP INHIBITORS” (Vanderbilt University, priority 2017, published 2020)
The name of at least one read-out is uncertain.

Test system: BMP4
Experiment: BMP4 cell assay (BMP reporter)
Format: cell-based
Conditions: Table 2; concentrations in uM as printed in the cell

Structure (SMILES) | BMP4 Cell IC50 column, result in words
Nc1ccc(-c2ccn3c(-c4ccccc4)cnc3c2)cc1 | Actually induces/ potentiates at 0.5-10 uM (5-25-2012)
O=C(Nc1ccc(-c2ccn3c(-c4ccccc4)cnc3c2)cc1)c1ccccn1 | Actually induces/ potentiates BMP reproter (5-31-2012, set 9)
